Results published in article PMC12533644.

Assays:
FUBP1-strep = target: T1, FUBP1-strep (UniProt Q96AE4); assay: EMSA; conditions: EMSA: 10 mM Tris pH 7.5, 140 mM KCl, 10 mM NaCl, 1 mM MgCl2, 10% glycerol, 1 mM DTT, RNase inhibitor 1 U/ul, room temperature 30 min, recombinant protein, protein details: C-terminal Strep-tag, label: 5' FAM
T1 sequence (looked up, limits assumed): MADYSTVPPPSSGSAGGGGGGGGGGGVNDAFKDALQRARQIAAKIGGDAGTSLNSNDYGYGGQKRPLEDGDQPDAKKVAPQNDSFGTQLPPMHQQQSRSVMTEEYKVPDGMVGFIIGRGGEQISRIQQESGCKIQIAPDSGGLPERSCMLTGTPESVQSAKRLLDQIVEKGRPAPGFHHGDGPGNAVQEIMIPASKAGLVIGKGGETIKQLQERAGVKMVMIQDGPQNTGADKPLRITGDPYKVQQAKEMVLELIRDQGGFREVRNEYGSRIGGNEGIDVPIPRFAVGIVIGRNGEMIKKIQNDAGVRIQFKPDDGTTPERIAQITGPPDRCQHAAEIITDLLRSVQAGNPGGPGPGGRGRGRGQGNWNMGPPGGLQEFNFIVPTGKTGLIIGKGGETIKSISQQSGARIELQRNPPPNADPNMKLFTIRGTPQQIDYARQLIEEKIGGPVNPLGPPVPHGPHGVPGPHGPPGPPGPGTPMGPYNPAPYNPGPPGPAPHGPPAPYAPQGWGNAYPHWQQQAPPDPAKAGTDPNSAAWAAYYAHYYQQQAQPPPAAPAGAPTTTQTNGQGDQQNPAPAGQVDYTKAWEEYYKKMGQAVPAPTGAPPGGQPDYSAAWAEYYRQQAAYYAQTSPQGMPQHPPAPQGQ

FMRP = FMRP (UniProt Q06787); assay: pull-down, immunoblot; conditions: Pull-down: HepG2 lysate (50 mM Tris pH 7.5, 100 mM NaCl, 1% NP-40, 0.5% deoxycholate) + tRNA 50 ug/ml, RT 30 min then 4 C 90 min, washes 10 mM Tris pH 7.5, 150 mM KCl, protein in an extract
FUBP3 = target: T2, FUBP3 (UniProt Q96I24); assay: pull-down, immunoblot; conditions: Pull-down: HepG2 lysate (50 mM Tris pH 7.5, 100 mM NaCl, 1% NP-40, 0.5% deoxycholate) + tRNA 50 ug/ml, RT 30 min then 4 C 90 min, washes 10 mM Tris pH 7.5, 150 mM KCl, protein in an extract
T2 sequence (looked up, limits assumed): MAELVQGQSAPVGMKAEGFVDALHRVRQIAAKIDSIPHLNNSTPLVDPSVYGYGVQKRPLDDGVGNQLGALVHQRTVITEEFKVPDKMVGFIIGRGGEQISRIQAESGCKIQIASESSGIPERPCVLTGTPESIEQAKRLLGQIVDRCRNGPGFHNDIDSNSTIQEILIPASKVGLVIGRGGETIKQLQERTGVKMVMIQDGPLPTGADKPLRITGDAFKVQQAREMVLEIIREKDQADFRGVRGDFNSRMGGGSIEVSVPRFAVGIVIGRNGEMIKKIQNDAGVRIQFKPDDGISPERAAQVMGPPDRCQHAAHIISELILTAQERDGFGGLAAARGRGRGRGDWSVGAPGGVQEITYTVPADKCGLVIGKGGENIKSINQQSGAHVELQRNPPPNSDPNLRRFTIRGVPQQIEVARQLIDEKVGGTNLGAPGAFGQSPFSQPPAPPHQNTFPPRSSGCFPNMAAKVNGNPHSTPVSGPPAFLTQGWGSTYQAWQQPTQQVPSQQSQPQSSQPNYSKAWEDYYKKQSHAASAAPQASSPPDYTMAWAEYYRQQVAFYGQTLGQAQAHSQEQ

IGF2BP1 = IGF2BP1 (UniProt Q9NZI8); assay: pull-down, immunoblot; conditions: Pull-down: HepG2 lysate (50 mM Tris pH 7.5, 100 mM NaCl, 1% NP-40, 0.5% deoxycholate) + tRNA 50 ug/ml, RT 30 min then 4 C 90 min, washes 10 mM Tris pH 7.5, 150 mM KCl, protein in an extract
IGF2BP3 = IGF2BP3 (UniProt O00425); assay: pull-down, immunoblot; conditions: Pull-down: HepG2 lysate (50 mM Tris pH 7.5, 100 mM NaCl, 1% NP-40, 0.5% deoxycholate) + tRNA 50 ug/ml, RT 30 min then 4 C 90 min, washes 10 mM Tris pH 7.5, 150 mM KCl, protein in an extract
NCOA5 = target: T3, NCOA5 (UniProt Q9HCD5); assay: pull-down, immunoblot; conditions: Pull-down: HepG2 lysate (50 mM Tris pH 7.5, 100 mM NaCl, 1% NP-40, 0.5% deoxycholate) + tRNA 50 ug/ml, RT 30 min then 4 C 90 min, washes 10 mM Tris pH 7.5, 150 mM KCl, protein in an extract
T3 sequence (looked up, limits assumed): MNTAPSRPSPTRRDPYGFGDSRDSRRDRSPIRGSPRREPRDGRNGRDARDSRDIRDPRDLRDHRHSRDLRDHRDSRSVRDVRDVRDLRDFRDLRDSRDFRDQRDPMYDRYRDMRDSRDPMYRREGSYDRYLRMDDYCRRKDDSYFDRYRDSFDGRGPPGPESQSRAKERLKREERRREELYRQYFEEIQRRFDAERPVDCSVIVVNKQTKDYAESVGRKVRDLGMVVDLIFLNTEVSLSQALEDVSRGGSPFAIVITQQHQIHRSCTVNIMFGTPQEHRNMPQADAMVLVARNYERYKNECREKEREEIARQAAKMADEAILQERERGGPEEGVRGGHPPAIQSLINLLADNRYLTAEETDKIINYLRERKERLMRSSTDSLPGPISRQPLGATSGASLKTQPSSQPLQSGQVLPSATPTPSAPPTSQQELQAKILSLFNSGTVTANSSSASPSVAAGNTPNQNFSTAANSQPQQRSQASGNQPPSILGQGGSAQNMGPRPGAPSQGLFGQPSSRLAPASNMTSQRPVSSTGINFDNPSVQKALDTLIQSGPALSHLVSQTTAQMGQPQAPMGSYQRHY

FUBP1 (HepG2 lysate) = target: T4, FUBP1 (HepG2 lysate) (UniProt Q96AE4); assay: pull-down, immunoblot; conditions: Pull-down: HepG2 lysate (50 mM Tris pH 7.5, 100 mM NaCl, 1% NP-40, 0.5% deoxycholate) + tRNA 50 ug/ml, RT 30 min then 4 C 90 min, washes 10 mM Tris pH 7.5, 150 mM KCl, protein in an extract
T4 sequence (looked up, limits assumed): T1 sequence (looked up, limits assumed)

Work on AAUGCUUUACUUUCUGUGUUGAAG [Ctrl-1 (FAM)] yielded a Kd (FUBP1-strep) of 0.112 µM.

“AAUGCUUUACUUUCUGUGUUGAAG [Ctrl-1 (biotin)]”: binds more weakly (FMRP); binds more weakly (FUBP3); binds more weakly (IGF2BP1). “AAUGCUUUACUUUCUGUGUUGAAG [Ctrl-1 (biotin)]”: binds more weakly (IGF2BP3); binds more weakly (NCOA5).

AAUGCUUUACUUUCUGUGUUGAAG [Gm-1 (FAM)] gave a Kd (FUBP1-strep; 2'-O-methyl G16) of 0.085 µM.

“AAUGCUUUACUUUCUGUGUUGAAG [Gm-1 (biotin)]”: binds (FMRP; 2'-O-methyl G16); binds (FUBP1 (HepG2 lysate); 2'-O-methyl G16); binds (FUBP3; 2'-O-methyl G16). “AAUGCUUUACUUUCUGUGUUGAAG [Gm-1 (biotin)]”: binds (IGF2BP1; 2'-O-methyl G16); binds (IGF2BP3; 2'-O-methyl G16); binds (NCOA5; 2'-O-methyl G16).

“ACUGAACGCCUUUAAGUCAGAAUCCCACCC [SEC14L1 control]”: binds more weakly (FUBP1-strep).

UGAAAGCUGGAUACCUAAUGUCAG [Am-2 (FAM)] showed a Kd (FUBP1-strep; 2'-O-methyl A13) of 0.11 µM.

“UGAAAGCUGGAUACCUAAUGUCAG [Am-2 (biotin)]”: binds (FMRP; 2'-O-methyl A13); binds (FUBP1 (HepG2 lysate); 2'-O-methyl A13); binds (FUBP3; 2'-O-methyl A13). “UGAAAGCUGGAUACCUAAUGUCAG [Am-2 (biotin)]”: binds (IGF2BP1; 2'-O-methyl A13); binds (IGF2BP3; 2'-O-methyl A13); binds (NCOA5; 2'-O-methyl A13).

For UGAAAGCUGGAUACCUAAUGUCAG [Ctrl-2 (FAM)], the Kd (FUBP1-strep) was 0.126 µM.

“UGAAAGCUGGAUACCUAAUGUCAG [Ctrl-2 (biotin)]”: binds more weakly (FMRP); binds more weakly (FUBP3); binds more weakly (IGF2BP1). “UGAAAGCUGGAUACCUAAUGUCAG [Ctrl-2 (biotin)]”: binds more weakly (IGF2BP3); binds more weakly (NCOA5).

Construct, isoform or probe ends are uncertain for at least one entry. For part of these data: Weaker means in comparison with the reference protein, sequence or condition of that experiment. For part of these data: Where a protein sequence is shown, tags need not be part of it. For part of these data: Results from cells or extracts need not show a direct contact.
